This is one part of the list.
How the values were obtained:
Test in all cases: log2 fold change, soluble protein after heating vs DMSO (PISA); higher = thermal stabilisation; K562 lysate, 10 uM; active = over 0.2 and 3.5 SD of the protein, either way, in both replicates (recomputed)
[1] = compound: C1=CC=C(C=C1)[C@H](COC2=CC3=C(C=C2)NC(=O)N3)NC(=O)C4=CC=CN(C4=O)CC5=CC(=C(C=C5)F)F
In short: (§1)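 A 30 min treatment with 10 μM compound was applied to crude K562 extract at 1 mg/mL protein in PBS pH 7.4 with 1 mM MgCl2. Heating for 3 min spanned 48°C-58°C, after which aliquots were pooled, adjusted to 0.5% NP-40 at 4°C and spun at 21,000xg for 90 min. TMTpro 16plex LC-MS/MS of the supernatant, with channel sums equalised, gave values recorded as log-two fold change in thermal stability against solvent controls, from duplicates.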

Sequences of proteins named here, by UniProt entry; tags and fusion partners are left off. A change or cut given only in a name is not applied to a line headed by its entry.
UniProt P09496: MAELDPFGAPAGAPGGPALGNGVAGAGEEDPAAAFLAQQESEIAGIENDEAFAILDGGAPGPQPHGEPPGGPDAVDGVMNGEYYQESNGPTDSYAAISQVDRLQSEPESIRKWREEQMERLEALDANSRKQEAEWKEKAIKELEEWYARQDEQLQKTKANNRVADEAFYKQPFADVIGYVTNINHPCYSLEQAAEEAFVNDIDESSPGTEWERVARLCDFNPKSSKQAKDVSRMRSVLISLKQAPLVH
UniProt Q96NY7: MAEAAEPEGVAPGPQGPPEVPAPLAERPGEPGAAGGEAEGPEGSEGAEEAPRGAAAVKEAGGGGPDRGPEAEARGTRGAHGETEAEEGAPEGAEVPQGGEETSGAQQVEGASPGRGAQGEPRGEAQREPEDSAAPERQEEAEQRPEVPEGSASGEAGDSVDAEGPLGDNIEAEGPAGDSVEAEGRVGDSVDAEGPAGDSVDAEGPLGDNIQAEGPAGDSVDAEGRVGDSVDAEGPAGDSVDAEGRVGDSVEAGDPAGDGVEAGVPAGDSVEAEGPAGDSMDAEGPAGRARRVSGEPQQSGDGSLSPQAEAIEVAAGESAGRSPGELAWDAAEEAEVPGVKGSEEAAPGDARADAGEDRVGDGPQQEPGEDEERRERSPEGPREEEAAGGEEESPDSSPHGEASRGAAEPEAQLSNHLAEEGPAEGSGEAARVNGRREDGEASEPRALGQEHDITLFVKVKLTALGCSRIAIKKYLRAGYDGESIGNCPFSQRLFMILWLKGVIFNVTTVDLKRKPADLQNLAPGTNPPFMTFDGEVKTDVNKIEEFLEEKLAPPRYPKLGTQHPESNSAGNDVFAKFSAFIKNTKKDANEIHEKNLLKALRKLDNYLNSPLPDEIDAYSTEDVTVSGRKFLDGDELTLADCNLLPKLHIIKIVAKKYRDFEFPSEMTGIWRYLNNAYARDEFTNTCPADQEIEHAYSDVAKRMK
UniProt Q9Y3D0: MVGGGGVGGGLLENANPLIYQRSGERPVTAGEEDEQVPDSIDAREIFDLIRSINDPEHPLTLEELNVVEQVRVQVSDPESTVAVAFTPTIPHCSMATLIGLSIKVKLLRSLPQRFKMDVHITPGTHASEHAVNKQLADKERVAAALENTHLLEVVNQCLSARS
UniProt Q8NFW8: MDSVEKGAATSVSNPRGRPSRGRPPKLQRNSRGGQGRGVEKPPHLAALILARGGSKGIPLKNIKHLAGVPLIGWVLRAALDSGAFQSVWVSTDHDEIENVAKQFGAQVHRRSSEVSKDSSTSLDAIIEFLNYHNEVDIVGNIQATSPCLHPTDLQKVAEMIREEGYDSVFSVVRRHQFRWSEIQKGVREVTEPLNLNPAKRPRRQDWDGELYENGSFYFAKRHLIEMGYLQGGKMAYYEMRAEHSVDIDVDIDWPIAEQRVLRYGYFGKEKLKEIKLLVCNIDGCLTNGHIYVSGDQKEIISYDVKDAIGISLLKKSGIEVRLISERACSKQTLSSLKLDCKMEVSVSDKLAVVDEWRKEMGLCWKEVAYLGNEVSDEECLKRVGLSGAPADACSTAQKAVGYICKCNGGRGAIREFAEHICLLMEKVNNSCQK
UniProt Q9HCK8: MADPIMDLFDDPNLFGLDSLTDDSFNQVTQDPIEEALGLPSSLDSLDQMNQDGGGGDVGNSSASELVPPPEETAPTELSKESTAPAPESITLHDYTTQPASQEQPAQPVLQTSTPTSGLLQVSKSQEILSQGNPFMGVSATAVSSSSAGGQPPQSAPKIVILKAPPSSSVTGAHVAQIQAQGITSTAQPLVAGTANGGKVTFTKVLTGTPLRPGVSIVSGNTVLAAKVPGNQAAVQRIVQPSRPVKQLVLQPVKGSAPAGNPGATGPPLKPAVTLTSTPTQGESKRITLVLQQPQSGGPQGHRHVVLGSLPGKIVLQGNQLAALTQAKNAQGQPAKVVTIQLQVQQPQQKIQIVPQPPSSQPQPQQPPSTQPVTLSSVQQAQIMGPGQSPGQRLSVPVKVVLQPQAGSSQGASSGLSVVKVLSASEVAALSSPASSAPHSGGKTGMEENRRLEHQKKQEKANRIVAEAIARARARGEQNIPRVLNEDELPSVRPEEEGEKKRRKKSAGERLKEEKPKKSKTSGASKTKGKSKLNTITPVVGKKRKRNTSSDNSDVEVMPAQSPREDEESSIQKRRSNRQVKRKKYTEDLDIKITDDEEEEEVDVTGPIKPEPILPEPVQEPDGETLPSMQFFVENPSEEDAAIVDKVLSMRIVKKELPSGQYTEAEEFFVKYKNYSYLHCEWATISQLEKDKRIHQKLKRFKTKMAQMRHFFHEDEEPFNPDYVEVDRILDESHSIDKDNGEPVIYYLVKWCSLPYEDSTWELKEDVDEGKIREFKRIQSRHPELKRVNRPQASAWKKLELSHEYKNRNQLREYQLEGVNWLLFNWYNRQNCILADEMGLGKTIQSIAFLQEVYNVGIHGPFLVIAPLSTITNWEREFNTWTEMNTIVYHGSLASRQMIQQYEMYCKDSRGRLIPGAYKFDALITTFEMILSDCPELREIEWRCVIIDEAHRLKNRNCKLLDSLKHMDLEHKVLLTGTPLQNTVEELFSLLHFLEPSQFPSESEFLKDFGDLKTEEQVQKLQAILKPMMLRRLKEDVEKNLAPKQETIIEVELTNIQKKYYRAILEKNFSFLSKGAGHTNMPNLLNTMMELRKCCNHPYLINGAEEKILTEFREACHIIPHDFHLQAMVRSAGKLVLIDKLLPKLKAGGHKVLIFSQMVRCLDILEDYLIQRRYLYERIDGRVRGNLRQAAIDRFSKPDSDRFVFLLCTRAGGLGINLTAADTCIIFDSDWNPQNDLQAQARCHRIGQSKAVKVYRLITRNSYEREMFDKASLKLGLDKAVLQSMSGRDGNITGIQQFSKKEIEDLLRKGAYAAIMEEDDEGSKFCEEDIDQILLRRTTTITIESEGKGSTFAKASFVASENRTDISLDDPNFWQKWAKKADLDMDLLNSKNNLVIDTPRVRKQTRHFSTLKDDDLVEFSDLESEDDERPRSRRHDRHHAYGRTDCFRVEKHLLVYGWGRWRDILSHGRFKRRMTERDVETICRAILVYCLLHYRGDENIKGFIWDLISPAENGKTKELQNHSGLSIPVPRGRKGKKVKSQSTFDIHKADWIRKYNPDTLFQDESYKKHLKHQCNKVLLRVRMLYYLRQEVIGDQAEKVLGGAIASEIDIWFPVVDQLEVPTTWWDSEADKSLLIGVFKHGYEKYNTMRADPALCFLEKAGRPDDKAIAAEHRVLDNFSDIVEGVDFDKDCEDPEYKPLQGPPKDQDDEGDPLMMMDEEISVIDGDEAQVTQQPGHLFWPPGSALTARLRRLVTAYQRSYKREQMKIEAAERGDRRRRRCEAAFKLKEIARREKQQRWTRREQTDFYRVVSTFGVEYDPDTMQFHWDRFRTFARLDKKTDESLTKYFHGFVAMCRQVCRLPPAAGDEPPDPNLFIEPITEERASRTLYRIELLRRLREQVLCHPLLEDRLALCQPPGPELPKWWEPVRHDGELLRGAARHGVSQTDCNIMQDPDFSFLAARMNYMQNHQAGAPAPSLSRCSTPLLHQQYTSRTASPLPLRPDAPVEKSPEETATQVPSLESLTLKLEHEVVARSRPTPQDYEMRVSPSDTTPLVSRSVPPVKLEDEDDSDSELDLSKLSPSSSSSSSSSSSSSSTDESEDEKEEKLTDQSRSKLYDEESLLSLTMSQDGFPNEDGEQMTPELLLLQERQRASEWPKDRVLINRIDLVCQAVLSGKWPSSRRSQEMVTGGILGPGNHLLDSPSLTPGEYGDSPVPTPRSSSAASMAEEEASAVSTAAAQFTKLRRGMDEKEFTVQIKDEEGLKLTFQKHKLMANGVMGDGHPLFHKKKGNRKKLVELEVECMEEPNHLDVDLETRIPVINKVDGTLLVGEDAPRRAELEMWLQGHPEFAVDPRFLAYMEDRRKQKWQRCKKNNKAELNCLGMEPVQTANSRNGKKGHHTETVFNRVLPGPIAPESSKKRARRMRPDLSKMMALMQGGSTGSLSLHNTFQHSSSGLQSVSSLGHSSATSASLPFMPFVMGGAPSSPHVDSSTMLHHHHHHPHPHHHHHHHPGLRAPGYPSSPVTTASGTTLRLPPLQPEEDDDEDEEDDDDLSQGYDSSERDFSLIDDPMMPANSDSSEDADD
UniProt Q9BWS9: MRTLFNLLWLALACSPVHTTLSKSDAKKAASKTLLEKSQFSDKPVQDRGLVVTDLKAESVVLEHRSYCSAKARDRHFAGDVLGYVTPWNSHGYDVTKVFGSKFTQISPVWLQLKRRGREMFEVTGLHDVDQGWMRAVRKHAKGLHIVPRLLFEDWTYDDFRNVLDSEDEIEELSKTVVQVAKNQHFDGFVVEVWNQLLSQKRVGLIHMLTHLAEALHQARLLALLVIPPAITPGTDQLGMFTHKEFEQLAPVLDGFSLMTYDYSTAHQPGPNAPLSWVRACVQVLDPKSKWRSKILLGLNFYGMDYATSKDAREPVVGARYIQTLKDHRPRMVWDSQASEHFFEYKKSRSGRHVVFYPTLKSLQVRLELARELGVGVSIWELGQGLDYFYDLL
UniProt Q00610: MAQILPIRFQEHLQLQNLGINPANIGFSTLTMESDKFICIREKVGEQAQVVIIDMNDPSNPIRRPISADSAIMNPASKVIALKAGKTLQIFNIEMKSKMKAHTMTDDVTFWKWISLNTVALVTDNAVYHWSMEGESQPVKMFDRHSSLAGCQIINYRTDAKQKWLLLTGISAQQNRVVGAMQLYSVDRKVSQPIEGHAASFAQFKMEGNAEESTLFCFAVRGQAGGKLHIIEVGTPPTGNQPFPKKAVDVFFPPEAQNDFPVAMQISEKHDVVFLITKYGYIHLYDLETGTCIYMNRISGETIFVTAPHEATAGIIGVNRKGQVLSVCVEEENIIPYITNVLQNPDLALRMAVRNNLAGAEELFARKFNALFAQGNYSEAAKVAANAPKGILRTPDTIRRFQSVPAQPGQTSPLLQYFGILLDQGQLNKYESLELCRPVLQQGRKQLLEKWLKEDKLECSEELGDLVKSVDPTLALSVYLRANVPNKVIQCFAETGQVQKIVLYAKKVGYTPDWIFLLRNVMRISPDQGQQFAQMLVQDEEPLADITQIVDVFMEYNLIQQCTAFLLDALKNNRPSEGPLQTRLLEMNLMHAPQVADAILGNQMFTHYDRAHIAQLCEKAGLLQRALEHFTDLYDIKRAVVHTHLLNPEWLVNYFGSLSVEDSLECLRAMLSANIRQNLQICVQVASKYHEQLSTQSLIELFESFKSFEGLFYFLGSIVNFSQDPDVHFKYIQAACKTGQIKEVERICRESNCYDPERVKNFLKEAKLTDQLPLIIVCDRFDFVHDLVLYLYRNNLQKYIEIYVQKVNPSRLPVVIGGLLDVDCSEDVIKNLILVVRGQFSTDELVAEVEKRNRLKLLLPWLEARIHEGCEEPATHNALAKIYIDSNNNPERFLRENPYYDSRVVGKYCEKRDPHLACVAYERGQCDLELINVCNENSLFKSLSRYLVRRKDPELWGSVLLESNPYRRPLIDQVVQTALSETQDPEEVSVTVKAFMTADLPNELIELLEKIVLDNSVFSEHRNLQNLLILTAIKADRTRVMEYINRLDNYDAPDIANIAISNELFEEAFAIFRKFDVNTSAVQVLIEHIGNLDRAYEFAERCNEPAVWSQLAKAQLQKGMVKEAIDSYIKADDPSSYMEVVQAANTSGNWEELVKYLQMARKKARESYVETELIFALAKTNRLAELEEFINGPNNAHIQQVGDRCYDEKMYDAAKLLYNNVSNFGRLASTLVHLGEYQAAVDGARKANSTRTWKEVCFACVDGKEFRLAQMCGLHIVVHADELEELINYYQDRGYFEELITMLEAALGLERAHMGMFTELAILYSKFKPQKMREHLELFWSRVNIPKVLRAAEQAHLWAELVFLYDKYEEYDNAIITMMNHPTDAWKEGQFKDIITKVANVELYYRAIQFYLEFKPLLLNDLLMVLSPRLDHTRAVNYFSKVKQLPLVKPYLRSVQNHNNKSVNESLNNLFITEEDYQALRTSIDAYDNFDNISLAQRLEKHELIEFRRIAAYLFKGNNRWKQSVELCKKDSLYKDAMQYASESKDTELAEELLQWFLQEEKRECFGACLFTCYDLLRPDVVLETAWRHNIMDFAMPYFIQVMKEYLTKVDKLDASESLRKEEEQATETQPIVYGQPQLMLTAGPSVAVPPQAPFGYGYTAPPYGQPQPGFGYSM
UniProt Q99653: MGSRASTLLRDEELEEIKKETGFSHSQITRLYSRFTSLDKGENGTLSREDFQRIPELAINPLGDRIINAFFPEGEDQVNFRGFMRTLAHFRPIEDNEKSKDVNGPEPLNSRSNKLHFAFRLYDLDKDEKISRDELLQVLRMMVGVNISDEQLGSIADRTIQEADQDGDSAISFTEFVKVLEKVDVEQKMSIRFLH
UniProt Q7LBR1: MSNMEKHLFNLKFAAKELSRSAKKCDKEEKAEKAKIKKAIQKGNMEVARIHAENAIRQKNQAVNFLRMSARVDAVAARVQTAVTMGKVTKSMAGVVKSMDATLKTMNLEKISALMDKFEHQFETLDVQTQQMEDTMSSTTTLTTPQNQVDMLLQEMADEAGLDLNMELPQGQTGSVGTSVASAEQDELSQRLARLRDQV

[2] = compound: CC1=C(SC2=C1C(=N[C@H](C3=NN=C(N32)C)CC(=O)N)C4=CC=C(C=C4)Cl)C
In short: as §1

[3] = compound: CC1=C2C(=CC=C1)N=C(N(C2=O)C3=CC=CC=C3C)CN4C=NC5=C(N=CN=C54)N
In short: as §1

[4] = compound: Cc1sc2c(c1C)C(c1ccc(Cl)cc1)=N[C@@H](CC(=O)OC(C)(C)C)c1nnc(C)n1-2
In short: as §1

[5] = compound: c1ccc([C@@H]2C[C@H]2NC2CCNCC2)cc1
In short: as §1

Measured: log2 fold change

CLIP1 isoform 1 (UniProt P30622)
inactive: [1] 0.04 | [2] -0.008 | [3] -0.002 | [4] -0.028 | [5] -0.019

CIRBP (UniProt Q14011)
inactive: [1] 0.016 | [2] 0.055 | [3] -0.014 | [4] 0.046 | [5] 0.015

CLNS1A (UniProt P54105)
inactive: [1] 0.02 | [2] 0.023 | [3] -0.011 | [4] -0.017 | [5] -0.022

CHAF1A (UniProt Q13111)
inactive: [1] -0.099 | [2] 0.136 | [3] 0.041 | [4] 0.017 | [5] 0.022

CKAP2 (UniProt Q8WWK9)
inactive: [1] 0.052 | [2] 0.066 | [3] 0.001 | [4] -0.003 | [5] -0.021

CLASRP (UniProt Q8N2M8)
inactive: [1] 0.066 | [2] 0.04 | [3] -0.013 | [4] -0.02 | [5] -0.009

CLUH, A0A494C0R8
inactive: [1] 0.014 | [2] 0.118 | [3] 0.133 | [4] -0.116 | [5] 0.132

CLUH (UniProt O75153)
inactive: [1] 0.03 | [2] 0.008 | [3] 0.021 | [4] -0.02 | [5] -0.058

CMSS1 (UniProt Q9BQ75)
inactive: [1] 0.035 | [2] -0.069 | [3] -0.017 | [4] -0.023 | [5] 0.106

CLINT1 (UniProt Q14677)
inactive: [1] 0.019 | [2] -0.003 | [3] -0.106 | [4] -0.12 | [5] -0.078

CLPTM1L (UniProt Q96KA5)
inactive: [1] -0.075 | [2] 0.039 | [3] 0.04 | [4] -0.02 | [5] 0.022

CHTOP isoform 3 (UniProt Q9Y3Y2)
inactive: [1] 0.03 | [2] -0.015 | [3] 0.046 | [4] 0.071 | [5] 0.011

CHMP2A (UniProt O43633)
inactive: [1] 0.027 | [2] 0.037 | [3] -0.003 | [4] 0.043 | [5] -0.046

CLTB isoform 2 (UniProt P09497)
inactive: [1] 0.026 | [2] -0.037 | [3] -0.024 | [4] -0.043 | [5] -0.017

CIC (UniProt I3L1Q4)
inactive: [1] 0.006 | [2] 0.225

CLCN6 isoform 5 (UniProt P51797)
inactive: [1] 0.003 | [2] 0.063 | [3] -0.059 | [4] -0.062

CLN6 (UniProt Q9NWW5)
inactive: [1] 0.067 | [2] -0.185 | [3] 0.022 | [4] -0.105

CLCN3 (UniProt P51790)
inactive: [1] 0.094 | [2] 0.014 | [3] 0.061 | [4] 0.063 | [5] 0.017

CHD6 (UniProt Q8TD26)
inactive: [1] -0.05 | [2] -0.009 | [3] 0.327 | [4] 0.119 | [5] -0.02

CLUAP1 (UniProt I3L2E1)
inactive: [1] -0.012 | [2] 0.079 | [3] 0.06

CISD1 (UniProt Q9NZ45)
inactive: [1] 0.043 | [2] 0.021 | [3] -0.025 | [4] -0.025 | [5] 0

CINP isoform 3 (UniProt Q9BW66)
inactive: [1] -0.016 | [2] -0.042 | [3] 0.039 | [4] -0.157 | [5] -0.145

CLTA (UniProt P09496)
inactive: [1] -0.051 | [2] -0.103 | [3] 0.001 | [4] 0.031 | [5] 0.027

CHMP4C (UniProt Q96CF2)
inactive: [1] 0.086 | [2] 0.02 | [3] 0.022 | [4] -0.018 | [5] -0.171

CKMT1A (UniProt P12532)
inactive: [1] 0.049 | [2] -0.005 | [3] 0.002 | [4] 0.105 | [5] -0.018

CLIC2 (UniProt O15247)
inactive: [1] -0.022 | [2] 0.033 | [3] 0 | [4] 0.017 | [5] 0.029

CLTA isoform 2 (UniProt P09496)
inactive: [1] -0.005 | [2] -0.05 | [3] -0.147 | [4] -0.008

CLIC6 (UniProt Q96NY7)
inactive: [1] 0.098 | [2] 0 | [3] 0.116 | [4] -0.01 | [5] -0.046

CHAMP1 (UniProt Q96JM3)
inactive: [1] 0.053 | [2] 0.021 | [3] 0.002 | [4] 0.023 | [5] 0.034

CHAF1B (UniProt Q13112)
inactive: [1] 0 | [2] 0.025 | [3] 0.008 | [4] -0.005 | [5] -0.05

CIAO2B (UniProt Q9Y3D0)
inactive: [1] 0.01 | [2] 0.04 | [3] -0.01 | [4] 0.054

CHD1 (UniProt O14646)
inactive: [1] -0.005 | [2] -0.018 | [3] -0.083 | [4] -0.057 | [5] 0.024

CHD7 (UniProt Q9P2D1)
inactive: [1] -0.052 | [2] -0.02 | [3] 0.007 | [4] -0.016 | [5] 0.022

CHKA (UniProt P35790)
inactive: [1] 0.05 | [2] 0.037 | [3] 0.023 | [4] 0.124 | [5] 0.071

CMAS (UniProt Q8NFW8)
inactive: [1] 0.025 | [2] 0.06 | [3] -0.011 | [4] 0.002 | [5] 0.02

CHD8 (UniProt Q9HCK8)
inactive: [1] 0.019 | [2] 0.01 | [3] -0.08 | [4] 0.022 | [5] 0

CHD4 isoform 2 (UniProt Q14839)
inactive: [1] 0 | [2] 0.003 | [3] 0.029 | [4] 0.021 | [5] 0.009

CLEC16A (UniProt Q2KHT3)
inactive: [1] 0.011 | [2] -0.032 | [3] 0.046 | [4] -0.015 | [5] 0.058

CHMP4B (UniProt Q9H444)
inactive: [1] 0.061 | [2] -0.028 | [3] -0.036 | [4] 0.015 | [5] 0.006

CIZ1 (UniProt Q9ULV3)
inactive: [1] -0.007 | [2] -0.027 | [3] 0.002 | [4] -0.037 | [5] -0.02

CHCHD3 (UniProt Q9NX63)
inactive: [1] -0.015 | [2] 0.039 | [3] -0.01 | [4] 0.017 | [5] 0.015

CLIC4 (UniProt Q9Y696)
inactive: [1] 0.003 | [2] 0.029 | [3] 0.003 | [4] 0.01 | [5] -0.059

CLYBL (UniProt Q8N0X4)
inactive: [1] -0.026 | [2] -0.007 | [3] -0.013 | [4] -0.032 | [5] -0.051

CIAO2A (UniProt Q9H5X1)
inactive: [1] -0.049 | [2] 0.062 | [3] 0.023 | [4] -0.032 | [5] 0.064

CMC2 (UniProt Q9NRP2)
inactive: [1] 0.044 | [2] 0.028 | [3] 0.003 | [4] -0.04 | [5] 0.003

CHID1 (UniProt Q9BWS9)
inactive: [1] 0.009 | [2] 0.027 | [3] 0.005 | [4] -0.029 | [5] 0.025

CMPK1 (UniProt P30085)
inactive: [1] 0.014 | [2] 0.008 | [3] -0.041 | [4] -0.056 | [5] -0.01

CLCN7 (UniProt P51798)
inactive: [1] 0.04 | [2] 0.001 | [3] -0.002 | [4] 0.003 | [5] 0

Reprinted at random: four records from the list.
CIAO2A (UniProt Q9H5X1)
inactive: [1] -0.049 | [2] 0.062 | [3] 0.023 | [4] -0.032 | [5] 0.064

CHID1 (UniProt Q9BWS9)
inactive: [1] 0.009 | [2] 0.027 | [3] 0.005 | [4] -0.029 | [5] 0.025

CMPK1 (UniProt P30085)
inactive: [1] 0.014 | [2] 0.008 | [3] -0.041 | [4] -0.056 | [5] -0.01

CMC2 (UniProt Q9NRP2)
inactive: [1] 0.044 | [2] 0.028 | [3] 0.003 | [4] -0.04 | [5] 0.003

More entries follow.

CHCHD2 (UniProt Q9Y6H1)
inactive: [1] -0.123 | [2] -0.043 | [3] -0.015 | [4] 0.062 | [5] -0.01

CLTC (UniProt Q00610)
inactive: [1] -0.005 | [2] 0.035 | [3] 0.045 | [4] 0.037 | [5] 0.053

CLCN3 isoform 2 (UniProt P51790)
inactive: [1] 0.033 | [2] 0.017 | [3] 0.053 | [4] -0.015 | [5] 0.033

CHMP4A isoform 2 (UniProt Q9BY43)
inactive: [1] 0.035 | [2] -0.009 | [3] 0.007 | [4] -0.022 | [5] -0.152

CHP1 (UniProt Q99653)
inactive: [1] 0.013 | [2] -0.016 | [3] 0.041 | [4] -0.041 | [5] -0.051

CHMP1B (UniProt Q7LBR1)
inactive: [1] -0.045 | [2] 0.019 | [3] -0.003 | [4] -0.029 | [5] 0.036
